Reference: PubChem BioAssay AID1053208 (Peter MacCallum Cancer Centre, 2014)
Shown is an unselected part of about 17,000 reagents. In the full data, 788 (4.7%) were called active. 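Calls rest on z-score classes alone; an extra cut-off of viability at most 70% of control was not applied to them.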 A number with no mark means an inactive call. Further read-outs or replicates are left out here. Reagent sequences are not shown.

- Purpose: 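Find knock-downs that sensitise mouse osteosarcoma cells to doxorubicin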 (primary screen)
- Cells: mouse osteosarcoma cells, early-passage culture from an engineered mouse model of fibroblastic bone tumour
- Reagents: siRNA pool against mouse genes, 40 nM
- Duration: about 120 h (48 h before drug, then 72 h with drug)
- Challenge: doxorubicin 100 nM for 72 h, roughly 30-40% inhibitory dose
- Read-out: 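Viability read as ATP luminescence after 72 h of 100 nM doxorubicin or none, duplicate wells averaged, scaled to non-targeting siRNA, then expressed as robust z-scores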
- Direction: viability z-score with doxorubicin: higher = more viable cells under doxorubicin; viability z-score without drug: higher = more viable cells with knock-down alone
- Call rule: 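Called active if knock-down leaves viability unchanged without drug (z within -2 to 2) but lowers it with doxorubicin (z at or under -2)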

Against Emcn (endomucin) the deposit lists combined z-score class no change with or without drug; viability z-score with doxorubicin 1.35; viability z-score without drug 0.17.
Spty2d1 (SPT2 chromatin protein domain containing 1) showed combined z-score class no change with or without drug; viability z-score with doxorubicin -0.34; viability z-score without drug -0.17.
For BC021340, the values are combined z-score class no change with or without drug; viability z-score with doxorubicin 1.57; viability z-score without drug 0.17.
Urgcp (upregulator of cell proliferation) gave combined z-score class no change with or without drug; viability z-score with doxorubicin 0; viability z-score without drug 0.67.
For Ecpas (Ecm29 proteasome adaptor and scaffold) the deposit lists combined z-score class no change with or without drug; viability z-score with doxorubicin 0.22; viability z-score without drug -0.17.
For Trpm4, the entry reads combined z-score class no change with or without drug; viability z-score with doxorubicin 0.34; viability z-score without drug 1.18.
Cmtr2 (cap methyltransferase 2) scored combined z-score class no change with or without drug; viability z-score with doxorubicin 1.35; viability z-score without drug 0.
Gabrp (gamma-aminobutyric acid type A receptor subunit pi) scored combined z-score class no change with or without drug; viability z-score with doxorubicin 0.79; viability z-score without drug 0.67.
For Slc22a1, the values are combined z-score class no change with or without drug; viability z-score with doxorubicin -1.57; viability z-score without drug 0.17.
With knock-down of Kdf1 (keratinocyte differentiation factor 1), the screen gave combined z-score class no change with or without drug; viability z-score with doxorubicin 0.67; viability z-score without drug 1.18.
Depletion of Alox12b (arachidonate 12-lipoxygenase, 12R type) resulted in: combined z-score class high cell count with doxorubicin only; viability z-score with doxorubicin 2.59; viability z-score without drug 1.18.
Against Klhl13 (kelch-like 13), the values are combined z-score class no change with or without drug; viability z-score with doxorubicin 1.12; viability z-score without drug 1.52.
Against Or4b13 (olfactory receptor family 4 subfamily B member 13) the deposit lists combined z-score class no change with or without drug; viability z-score with doxorubicin -1.12; viability z-score without drug -0.84.
Or5w12 (olfactory receptor family 5 subfamily W member 12) scored combined z-score class no change with or without drug; viability z-score with doxorubicin -1.12; viability z-score without drug -1.85.
For Xtbd1 (XRN2 binding domain containing 1), the values are combined z-score class no change with or without drug; viability z-score with doxorubicin -0.56; viability z-score without drug 1.52.
Mbd4 (methyl-CpG binding domain protein 4) showed combined z-score class no change with or without drug; viability z-score with doxorubicin 1.8; viability z-score without drug 0.34.
Against Stc1 (stanniocalcin 1), the values are combined z-score class no change with or without drug; viability z-score with doxorubicin 0.79; viability z-score without drug 1.52.
Depletion of Gde1 (glycerophosphodiester phosphodiesterase 1) gave: combined z-score class no change with or without drug; viability z-score with doxorubicin 0.9; viability z-score without drug 0.84.
After knock-down of Clcn7 (chloride channel, voltage-sensitive 7), the record shows combined z-score class no change with or without drug; viability z-score with doxorubicin -1.12; viability z-score without drug 0.84.
After knock-down of Slamf9 (SLAM family member 9), the screen gave combined z-score class no change with or without drug; viability z-score with doxorubicin -0.34; viability z-score without drug 0.17.
Or8g35 (olfactory receptor family 8 subfamily G member 35) scored combined z-score class no change with or without drug; viability z-score with doxorubicin 0.11; viability z-score without drug -0.51.
With knock-down of Exosc9 (exosome component 9), the record shows combined z-score class no change with or without drug; viability z-score with doxorubicin 0.9; viability z-score without drug 0.51.
Depletion of Vmn1r208 (vomeronasal 1 receptor 208) resulted in: combined z-score class no change with or without drug; viability z-score with doxorubicin 0.45; viability z-score without drug -1.18.
Against Impg1 (interphotoreceptor matrix proteoglycan 1) the deposit lists combined z-score class no change with or without drug; viability z-score with doxorubicin 0.9; viability z-score without drug -0.51.
Against Rap1b (RAS related protein 1b) the deposit lists combined z-score class no change with or without drug; viability z-score with doxorubicin 0.9; viability z-score without drug 1.18.
Ptp4a3 (protein tyrosine phosphatase 4a3) showed combined z-score class no change with or without drug; viability z-score with doxorubicin 1.69; viability z-score without drug 0.51.
Silencing of Dtd1 (D-tyrosyl-tRNA deacylase 1) resulted in: combined z-score class no change with or without drug; viability z-score with doxorubicin -1.57; viability z-score without drug -0.51.
Silencing of Tmx2 (thioredoxin-related transmembrane protein 2) came out at: combined z-score class no change with or without drug; viability z-score with doxorubicin -0.45; viability z-score without drug 0.84.
